The target of assay [1] is T1, RibH (dimethylribityl-lumazine synthase, native) (Bacillus subtilis (endogenous in PY79)) (UniProt P11998).
T1 sequence: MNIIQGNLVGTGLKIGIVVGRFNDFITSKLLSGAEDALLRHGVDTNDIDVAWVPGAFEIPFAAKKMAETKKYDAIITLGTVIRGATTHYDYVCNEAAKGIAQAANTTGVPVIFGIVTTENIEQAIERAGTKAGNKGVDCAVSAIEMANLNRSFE
As to the kind of experiment: condition: only ribE-mV expressed from amyE and ribE deleted from the original locus; single particle tracking (jump distance analysis of diffusive populations); live B. subtilis PY79 cells; ribE-mV expressed from the ectopic amyE locus, ribE deleted from the original locus, RibH present.

Assay [2] deals with RibH-mV (DMRL synthase RibH with C-terminal mVenus) (Bacillus subtilis) (UniProt P11998). In words: single particle tracking (jump distance analysis of diffusive populations); live B. subtilis PY79 cells in exponential growth (S7_50 minimal medium, grown at 30 °C); mVenus fusion expressed from the original gene locus; populations compared with ribH or ribE deletion strains and with calculated diffusion coefficients; 13.76 ms interval.

No constants are given. Whether binding was seen depends on the method and setting. Some results given as binding are weak or reduced against the parent protein; the word gives no strength.

B1: RibE-mV (riboflavin synthase RibE with C-terminal mVenus) (enzyme, UniProt P16440 1-215)
chain: MFTGIIEETGTIESMKKAGHAMALTIKCSKILEDVHLGDSIAVNGICLTVTDFTKNQFTVDVMPETVKATSLNDLTKGSKVNLERAMAANGRFGGHFVSGHVDGTAEITRIEEKSNAVYYDLKMDPSLTKTLVLKGSITVDGVSLTIFGLTEDTVTISLIPHTISETIFSEKTIGSKVNIECDMIGKYMYRFLHKANENKTQQTITKAFLSENGF
Take B1: in assay [1], the binding result is given as “no binding”.

B2: RibH-mV (DMRL synthase RibH with C-terminal mVenus) (enzyme, UniProt P11998 1-154)
chain: T1 sequence
Consider B2, for which the binding entry in assay [2] was “binds”.

Values taken from article PMC8414670.
